Test: peptide synthesis
Conditions: lipidation step, HPLC Method 1, several disulfide bridges, sequence written open

For “B(1-29)-B22K((eps)hexadecandioyl-gGlu)-B29H-TGLGSGR-A(1-21)-A18Q-A21G Human insulin”, the “purity (crude or final not stated)” value was 99.2%.

— patent US20090069215A1 (Novo Nordisk A/S, priority 2006, published 2009)
